These results are taken from article PMC8655793.

Chains of the proteins cited; added tags and fusions are not shown. Lines headed by an entry give the natural chain unless they say otherwise; changes in a name come on top.
UniProt P34574: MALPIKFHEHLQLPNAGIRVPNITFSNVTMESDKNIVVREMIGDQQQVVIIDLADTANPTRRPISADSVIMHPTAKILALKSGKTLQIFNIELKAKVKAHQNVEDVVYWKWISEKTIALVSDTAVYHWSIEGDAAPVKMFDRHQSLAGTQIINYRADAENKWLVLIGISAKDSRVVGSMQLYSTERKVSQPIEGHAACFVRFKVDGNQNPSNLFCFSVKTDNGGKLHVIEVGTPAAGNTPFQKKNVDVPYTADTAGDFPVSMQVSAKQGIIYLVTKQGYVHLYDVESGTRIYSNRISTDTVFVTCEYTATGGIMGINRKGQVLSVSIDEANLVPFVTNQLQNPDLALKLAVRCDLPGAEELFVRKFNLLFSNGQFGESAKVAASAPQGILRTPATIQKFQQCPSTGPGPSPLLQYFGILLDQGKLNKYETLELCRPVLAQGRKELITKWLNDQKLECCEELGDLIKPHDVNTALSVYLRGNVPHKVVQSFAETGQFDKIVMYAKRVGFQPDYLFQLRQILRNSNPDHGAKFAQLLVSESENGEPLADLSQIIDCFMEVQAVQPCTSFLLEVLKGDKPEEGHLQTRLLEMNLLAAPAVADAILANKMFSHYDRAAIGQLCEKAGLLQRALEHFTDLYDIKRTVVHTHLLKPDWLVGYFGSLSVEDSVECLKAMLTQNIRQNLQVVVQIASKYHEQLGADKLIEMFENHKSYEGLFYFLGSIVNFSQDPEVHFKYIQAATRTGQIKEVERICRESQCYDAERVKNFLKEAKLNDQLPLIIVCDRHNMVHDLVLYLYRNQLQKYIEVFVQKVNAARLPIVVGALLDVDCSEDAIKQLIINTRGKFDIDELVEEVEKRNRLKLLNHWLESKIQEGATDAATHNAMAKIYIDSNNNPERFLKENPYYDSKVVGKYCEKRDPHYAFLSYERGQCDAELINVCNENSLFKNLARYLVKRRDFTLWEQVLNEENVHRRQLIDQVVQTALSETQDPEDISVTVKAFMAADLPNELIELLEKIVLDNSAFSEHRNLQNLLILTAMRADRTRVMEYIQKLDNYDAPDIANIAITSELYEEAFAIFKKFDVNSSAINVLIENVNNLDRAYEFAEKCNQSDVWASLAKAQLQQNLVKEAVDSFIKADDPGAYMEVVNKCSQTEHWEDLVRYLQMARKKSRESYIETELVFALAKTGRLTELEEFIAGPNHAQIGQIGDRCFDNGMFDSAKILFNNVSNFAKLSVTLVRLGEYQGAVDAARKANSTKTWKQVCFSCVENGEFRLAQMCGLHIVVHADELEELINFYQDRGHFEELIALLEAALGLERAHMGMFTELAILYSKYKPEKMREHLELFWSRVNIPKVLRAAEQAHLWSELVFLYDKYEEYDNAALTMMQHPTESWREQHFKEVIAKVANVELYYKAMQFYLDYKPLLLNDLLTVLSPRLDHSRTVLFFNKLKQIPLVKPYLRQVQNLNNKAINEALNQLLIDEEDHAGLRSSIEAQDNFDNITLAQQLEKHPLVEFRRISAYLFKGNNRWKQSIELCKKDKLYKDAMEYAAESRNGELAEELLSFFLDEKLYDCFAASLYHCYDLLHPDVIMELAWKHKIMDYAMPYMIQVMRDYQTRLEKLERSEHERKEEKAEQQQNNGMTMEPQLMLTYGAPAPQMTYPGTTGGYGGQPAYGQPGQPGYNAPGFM
UniProt Q8WQB3: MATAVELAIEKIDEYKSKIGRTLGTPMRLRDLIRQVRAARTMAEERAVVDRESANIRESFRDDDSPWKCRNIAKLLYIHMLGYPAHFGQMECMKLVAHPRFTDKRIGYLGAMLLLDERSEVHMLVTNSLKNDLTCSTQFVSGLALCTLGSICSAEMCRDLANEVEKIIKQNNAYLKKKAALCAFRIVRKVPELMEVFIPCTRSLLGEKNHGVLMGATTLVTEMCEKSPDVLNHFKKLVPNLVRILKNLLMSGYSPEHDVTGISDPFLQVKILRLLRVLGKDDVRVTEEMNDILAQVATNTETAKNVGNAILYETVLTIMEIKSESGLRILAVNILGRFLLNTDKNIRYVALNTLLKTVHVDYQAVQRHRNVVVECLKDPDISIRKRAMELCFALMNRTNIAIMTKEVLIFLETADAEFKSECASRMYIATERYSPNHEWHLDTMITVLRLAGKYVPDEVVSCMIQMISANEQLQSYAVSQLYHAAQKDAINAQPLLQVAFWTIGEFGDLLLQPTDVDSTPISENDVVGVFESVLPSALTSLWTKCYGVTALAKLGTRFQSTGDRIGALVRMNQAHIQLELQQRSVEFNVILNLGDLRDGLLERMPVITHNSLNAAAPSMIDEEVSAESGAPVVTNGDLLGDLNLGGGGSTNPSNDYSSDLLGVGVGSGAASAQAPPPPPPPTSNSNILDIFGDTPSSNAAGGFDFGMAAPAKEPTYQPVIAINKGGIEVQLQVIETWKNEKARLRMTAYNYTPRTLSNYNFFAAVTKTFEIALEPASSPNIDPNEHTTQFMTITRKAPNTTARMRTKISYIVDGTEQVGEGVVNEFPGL

These are yes or no findings as the source states them, for the method shown. In cells and extracts the contact can be indirect. For some assays here: A result given as binding can be weak or reduced; the word gives no strength.

The target of experiment [1] is CHC-1 (clathrin heavy chain) (C. elegans) (UniProt P34574). Description: pull-down; GST pull-down with in vitro translated HA-tagged proteins, read by Western blot; only the target purified.
The target in experiment [2] is GST-APG-1 (AP-1 gamma subunit) (C. elegans) (UniProt Q8WQB3). The description is as above.

With “HA-SMAP-1 (stromal membrane-associated protein-1) (from UniProt O18181)”, the binding result is “no binding” in experiment [1] and “binds” in experiment [2].
